Source: the supplement of paper PMC10849652
The other results are listed elsewhere or left out.

By UniProt entry, the sequences of proteins in these tests, tags left out. Where a name states a change or a piece, a line headed by the entry shows the natural chain unless it says otherwise.
UniProt Q8N300: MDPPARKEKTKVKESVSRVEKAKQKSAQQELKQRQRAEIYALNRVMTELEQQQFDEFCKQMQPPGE
UniProt O43759: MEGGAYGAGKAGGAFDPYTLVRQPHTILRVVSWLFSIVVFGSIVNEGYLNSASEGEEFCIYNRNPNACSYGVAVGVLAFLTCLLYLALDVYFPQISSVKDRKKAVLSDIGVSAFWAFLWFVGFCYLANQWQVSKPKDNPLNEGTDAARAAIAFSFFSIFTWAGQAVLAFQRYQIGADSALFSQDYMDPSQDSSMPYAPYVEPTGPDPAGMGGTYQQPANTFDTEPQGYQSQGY
UniProt Q6PIF2: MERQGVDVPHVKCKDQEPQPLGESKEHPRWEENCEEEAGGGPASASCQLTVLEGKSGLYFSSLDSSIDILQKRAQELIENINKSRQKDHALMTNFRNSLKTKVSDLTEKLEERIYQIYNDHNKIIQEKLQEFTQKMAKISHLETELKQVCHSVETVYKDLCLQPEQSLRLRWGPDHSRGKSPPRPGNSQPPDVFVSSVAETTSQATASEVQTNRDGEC
UniProt Q9UBS9: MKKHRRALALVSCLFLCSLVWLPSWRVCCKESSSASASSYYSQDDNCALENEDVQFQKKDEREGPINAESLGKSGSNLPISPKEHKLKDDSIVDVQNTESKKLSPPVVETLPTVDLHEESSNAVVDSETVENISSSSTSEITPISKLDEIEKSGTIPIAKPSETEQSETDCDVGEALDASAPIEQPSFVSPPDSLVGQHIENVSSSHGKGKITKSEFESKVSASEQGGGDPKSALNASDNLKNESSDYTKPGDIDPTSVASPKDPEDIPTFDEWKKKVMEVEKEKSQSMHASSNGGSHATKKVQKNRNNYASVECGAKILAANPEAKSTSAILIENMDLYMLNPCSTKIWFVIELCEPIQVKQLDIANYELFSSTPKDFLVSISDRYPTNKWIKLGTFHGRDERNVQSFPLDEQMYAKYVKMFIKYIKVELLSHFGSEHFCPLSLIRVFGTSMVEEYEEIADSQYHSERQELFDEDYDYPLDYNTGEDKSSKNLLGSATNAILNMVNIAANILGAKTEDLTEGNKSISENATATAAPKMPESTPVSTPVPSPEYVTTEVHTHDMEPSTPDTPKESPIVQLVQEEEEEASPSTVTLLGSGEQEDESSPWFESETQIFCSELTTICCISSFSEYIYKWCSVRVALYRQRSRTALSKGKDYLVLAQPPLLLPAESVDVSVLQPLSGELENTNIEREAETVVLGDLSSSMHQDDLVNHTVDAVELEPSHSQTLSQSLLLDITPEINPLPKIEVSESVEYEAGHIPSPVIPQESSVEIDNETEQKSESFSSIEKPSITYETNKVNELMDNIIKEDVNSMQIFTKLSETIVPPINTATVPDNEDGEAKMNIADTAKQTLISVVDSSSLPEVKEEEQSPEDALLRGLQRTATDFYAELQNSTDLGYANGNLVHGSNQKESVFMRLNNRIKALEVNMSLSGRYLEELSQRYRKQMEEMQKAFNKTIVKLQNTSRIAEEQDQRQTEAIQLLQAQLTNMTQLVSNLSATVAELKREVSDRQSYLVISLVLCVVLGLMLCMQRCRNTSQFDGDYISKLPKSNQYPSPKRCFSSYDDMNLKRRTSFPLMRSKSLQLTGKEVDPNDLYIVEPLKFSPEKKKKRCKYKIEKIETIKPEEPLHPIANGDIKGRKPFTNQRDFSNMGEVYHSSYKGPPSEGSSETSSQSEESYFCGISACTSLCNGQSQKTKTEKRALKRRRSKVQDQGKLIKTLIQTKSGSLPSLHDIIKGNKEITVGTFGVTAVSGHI
UniProt Q9H668: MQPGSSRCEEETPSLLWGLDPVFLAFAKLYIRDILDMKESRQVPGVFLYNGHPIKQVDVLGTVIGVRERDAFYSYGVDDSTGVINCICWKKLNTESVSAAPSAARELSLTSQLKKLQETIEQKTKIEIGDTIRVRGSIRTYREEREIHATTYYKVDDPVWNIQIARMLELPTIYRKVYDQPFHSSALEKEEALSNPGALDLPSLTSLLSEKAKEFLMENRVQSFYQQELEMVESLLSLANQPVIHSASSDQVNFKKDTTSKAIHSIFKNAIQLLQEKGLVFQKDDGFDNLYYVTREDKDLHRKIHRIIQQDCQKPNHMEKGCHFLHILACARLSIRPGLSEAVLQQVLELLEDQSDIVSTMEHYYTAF
UniProt Q5VWG9, whole entry, looked up: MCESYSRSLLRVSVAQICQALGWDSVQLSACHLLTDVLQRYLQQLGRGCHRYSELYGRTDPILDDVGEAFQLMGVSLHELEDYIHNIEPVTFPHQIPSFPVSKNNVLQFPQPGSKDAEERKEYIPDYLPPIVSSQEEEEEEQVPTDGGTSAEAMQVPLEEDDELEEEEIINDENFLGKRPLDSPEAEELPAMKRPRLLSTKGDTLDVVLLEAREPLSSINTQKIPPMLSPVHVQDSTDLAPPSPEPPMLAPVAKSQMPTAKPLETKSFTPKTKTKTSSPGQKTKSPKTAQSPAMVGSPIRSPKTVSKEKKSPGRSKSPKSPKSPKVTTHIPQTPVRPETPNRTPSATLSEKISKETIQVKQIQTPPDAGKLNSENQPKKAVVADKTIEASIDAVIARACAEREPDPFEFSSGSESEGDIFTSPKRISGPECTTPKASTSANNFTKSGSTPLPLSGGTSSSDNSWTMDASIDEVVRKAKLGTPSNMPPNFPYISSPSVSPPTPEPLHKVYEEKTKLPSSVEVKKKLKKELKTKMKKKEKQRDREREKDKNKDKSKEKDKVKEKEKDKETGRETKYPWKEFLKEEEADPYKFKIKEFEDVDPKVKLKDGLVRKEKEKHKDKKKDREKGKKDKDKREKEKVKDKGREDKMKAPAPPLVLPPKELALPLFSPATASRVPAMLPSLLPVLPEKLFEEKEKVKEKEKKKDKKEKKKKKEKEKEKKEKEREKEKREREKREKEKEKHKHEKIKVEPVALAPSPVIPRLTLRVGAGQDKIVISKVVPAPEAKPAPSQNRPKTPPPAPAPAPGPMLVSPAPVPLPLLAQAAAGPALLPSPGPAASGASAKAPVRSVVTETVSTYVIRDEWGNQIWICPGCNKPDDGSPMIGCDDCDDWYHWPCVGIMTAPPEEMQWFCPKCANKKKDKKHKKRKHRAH
UniProt Q5T011: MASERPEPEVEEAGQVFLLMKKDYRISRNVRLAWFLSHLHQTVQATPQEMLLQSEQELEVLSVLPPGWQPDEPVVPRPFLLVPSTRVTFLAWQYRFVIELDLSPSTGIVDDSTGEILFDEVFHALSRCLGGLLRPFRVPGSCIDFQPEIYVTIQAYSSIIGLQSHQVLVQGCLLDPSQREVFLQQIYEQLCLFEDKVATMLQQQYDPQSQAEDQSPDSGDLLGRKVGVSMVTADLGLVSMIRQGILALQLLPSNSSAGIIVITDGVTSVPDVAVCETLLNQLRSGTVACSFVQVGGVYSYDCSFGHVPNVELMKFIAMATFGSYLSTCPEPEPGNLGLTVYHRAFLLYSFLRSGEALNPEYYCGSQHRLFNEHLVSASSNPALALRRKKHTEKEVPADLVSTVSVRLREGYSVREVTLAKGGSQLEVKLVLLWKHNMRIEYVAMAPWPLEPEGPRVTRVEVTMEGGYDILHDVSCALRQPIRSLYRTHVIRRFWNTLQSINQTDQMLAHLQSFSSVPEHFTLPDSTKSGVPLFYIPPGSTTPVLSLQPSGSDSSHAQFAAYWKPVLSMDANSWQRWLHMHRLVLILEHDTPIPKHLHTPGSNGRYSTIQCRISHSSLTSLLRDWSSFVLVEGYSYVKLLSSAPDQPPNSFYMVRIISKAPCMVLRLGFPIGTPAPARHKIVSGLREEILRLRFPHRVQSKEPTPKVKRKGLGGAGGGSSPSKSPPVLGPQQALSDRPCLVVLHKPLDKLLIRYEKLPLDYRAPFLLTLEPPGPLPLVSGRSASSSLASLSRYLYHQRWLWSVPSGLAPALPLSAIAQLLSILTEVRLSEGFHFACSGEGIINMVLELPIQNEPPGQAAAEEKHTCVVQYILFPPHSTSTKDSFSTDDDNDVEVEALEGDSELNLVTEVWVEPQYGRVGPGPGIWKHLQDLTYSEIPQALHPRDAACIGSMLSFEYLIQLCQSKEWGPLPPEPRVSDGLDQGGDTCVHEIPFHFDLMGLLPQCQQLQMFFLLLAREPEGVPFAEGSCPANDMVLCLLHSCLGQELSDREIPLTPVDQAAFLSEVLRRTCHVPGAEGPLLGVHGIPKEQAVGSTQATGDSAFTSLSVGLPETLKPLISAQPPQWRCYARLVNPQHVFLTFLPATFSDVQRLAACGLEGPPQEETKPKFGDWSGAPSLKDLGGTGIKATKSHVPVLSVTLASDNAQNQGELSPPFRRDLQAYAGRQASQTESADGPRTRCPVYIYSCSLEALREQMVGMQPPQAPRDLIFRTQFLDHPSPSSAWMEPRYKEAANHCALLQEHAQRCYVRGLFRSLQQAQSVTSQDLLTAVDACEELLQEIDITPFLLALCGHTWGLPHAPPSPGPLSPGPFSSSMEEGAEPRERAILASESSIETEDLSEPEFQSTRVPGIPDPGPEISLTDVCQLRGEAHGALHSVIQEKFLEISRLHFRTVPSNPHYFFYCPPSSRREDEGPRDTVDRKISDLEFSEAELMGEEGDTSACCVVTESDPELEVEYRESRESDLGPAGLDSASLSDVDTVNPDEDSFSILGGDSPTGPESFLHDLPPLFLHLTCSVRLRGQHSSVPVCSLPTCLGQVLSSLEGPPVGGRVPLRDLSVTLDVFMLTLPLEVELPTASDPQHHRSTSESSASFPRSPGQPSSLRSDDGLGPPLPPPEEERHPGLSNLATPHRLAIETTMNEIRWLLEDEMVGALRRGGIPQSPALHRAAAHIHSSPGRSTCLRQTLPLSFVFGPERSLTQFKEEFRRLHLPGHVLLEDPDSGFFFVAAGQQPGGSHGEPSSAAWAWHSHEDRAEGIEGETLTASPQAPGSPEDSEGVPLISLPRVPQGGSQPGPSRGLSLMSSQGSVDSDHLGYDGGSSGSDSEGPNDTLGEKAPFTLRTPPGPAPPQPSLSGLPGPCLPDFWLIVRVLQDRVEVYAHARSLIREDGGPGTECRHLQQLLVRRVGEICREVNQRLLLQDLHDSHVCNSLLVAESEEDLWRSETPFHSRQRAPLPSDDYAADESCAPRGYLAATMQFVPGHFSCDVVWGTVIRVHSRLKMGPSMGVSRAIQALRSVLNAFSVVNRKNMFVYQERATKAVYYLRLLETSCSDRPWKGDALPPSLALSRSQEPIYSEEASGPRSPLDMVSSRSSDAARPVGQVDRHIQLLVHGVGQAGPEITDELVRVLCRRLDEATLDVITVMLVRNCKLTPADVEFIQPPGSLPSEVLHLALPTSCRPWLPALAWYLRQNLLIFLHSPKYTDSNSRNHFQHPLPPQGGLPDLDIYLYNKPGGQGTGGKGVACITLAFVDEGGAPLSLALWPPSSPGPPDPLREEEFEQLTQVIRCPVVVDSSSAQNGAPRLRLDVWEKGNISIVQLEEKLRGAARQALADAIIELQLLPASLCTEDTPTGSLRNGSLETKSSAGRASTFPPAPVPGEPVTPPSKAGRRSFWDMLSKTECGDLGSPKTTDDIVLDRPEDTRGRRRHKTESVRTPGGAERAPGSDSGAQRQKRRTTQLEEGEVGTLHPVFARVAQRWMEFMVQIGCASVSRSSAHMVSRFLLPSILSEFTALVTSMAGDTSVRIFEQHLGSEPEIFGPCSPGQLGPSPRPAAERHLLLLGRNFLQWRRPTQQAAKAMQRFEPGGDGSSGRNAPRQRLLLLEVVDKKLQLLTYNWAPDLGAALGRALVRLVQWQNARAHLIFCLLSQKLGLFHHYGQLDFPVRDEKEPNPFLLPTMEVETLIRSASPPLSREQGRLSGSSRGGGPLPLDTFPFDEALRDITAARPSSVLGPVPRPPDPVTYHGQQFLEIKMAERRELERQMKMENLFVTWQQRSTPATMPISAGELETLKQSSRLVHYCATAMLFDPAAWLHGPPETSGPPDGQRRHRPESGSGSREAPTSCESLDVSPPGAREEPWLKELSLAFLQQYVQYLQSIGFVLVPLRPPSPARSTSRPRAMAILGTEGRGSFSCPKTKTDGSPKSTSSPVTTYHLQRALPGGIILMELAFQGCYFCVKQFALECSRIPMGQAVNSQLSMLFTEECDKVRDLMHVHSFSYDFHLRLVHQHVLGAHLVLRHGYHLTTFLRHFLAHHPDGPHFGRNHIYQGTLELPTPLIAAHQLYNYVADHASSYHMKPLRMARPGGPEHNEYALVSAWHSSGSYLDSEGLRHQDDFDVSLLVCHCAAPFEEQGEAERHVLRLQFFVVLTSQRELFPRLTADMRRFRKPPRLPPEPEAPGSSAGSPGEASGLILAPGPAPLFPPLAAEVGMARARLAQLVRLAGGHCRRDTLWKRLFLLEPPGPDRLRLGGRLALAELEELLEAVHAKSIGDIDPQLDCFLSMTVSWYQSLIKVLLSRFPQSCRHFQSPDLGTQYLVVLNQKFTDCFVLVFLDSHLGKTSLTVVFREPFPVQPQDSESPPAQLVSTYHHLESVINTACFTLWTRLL

Compound: NC(=O)Nc1cc(-c2cccc(F)c2)sc1C(=O)N[C@H]1CCCNC1
Assay: log2 fold change, soluble protein after heating vs DMSO (PISA); higher = thermal stabilisation; K562 lysate, 10 uM; active = over 0.2 and 3.5 SD of the protein, either way, in both replicates (recomputed)
Summary of the method: (§1)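 Soluble protein was defined as the supernatant remaining after 21,000xg for 90 min, following pooling of heated aliquots and adjustment to 0.5% NP-40 at 4°C. Before that, crude K562 extract at 1 mg/mL protein in PBS pH 7.4 with 1 mM MgCl2 was treated with 10 μM compound for 30 min and heated for 3 min across 48°C-58°C. Quantification used TMTpro 16plex LC-MS/MS with channel sums equalised, and values are log-two fold changes in thermal stability relative to solvent controls from duplicates.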

Target	log2 fold change
SVBP (UniProt Q8N300)	inactive: -0.007
SYNGR1 isoform 2 (UniProt O43759)	inactive: 0.144
SYCE2 (UniProt Q6PIF2)	inactive: 0.082
STS (UniProt P08842)	inactive: -0.009
STK19 (UniProt P49842)	inactive: -0.048
TAF1C (UniProt Q15572)	inactive: -0.006
SUCO isoform 2 (UniProt Q9UBS9)	inactive: 0.184
SYNCRIP isoform 3 (UniProt O60506)	inactive: -0.053
SUN2 isoform 2 (UniProt Q9UH99)	inactive: 0.042
STK38L (UniProt Q9Y2H1)	active: 0.552
SUPT3H (UniProt O75486)	inactive: 0.004
SUFU (UniProt Q9UMX1)	inactive: -0.028
TADA2A (UniProt O75478)	inactive: 0.134
SULT1A3 isoform 3 (UniProt P0DMM9)	inactive: 0.039
STN1 (UniProt Q9H668)	inactive: 0.156
STXBP6 (UniProt Q8NFX7)	inactive: -0.042
STK26 isoform 3 (UniProt Q9P289)	inactive: 0.203
SUSD1 isoform 2 (UniProt Q6UWL2)	inactive: 0.053
STK16 (UniProt O75716)	inactive: 0.225
STK10 (UniProt O94804)	inactive: 0.234

Compound: NC(=O)c1cnc(N[C@@H]2CCCC[C@@H]2N)nc1Nc1cccc(-n2nccn2)c1
Assay: as above
Summary of the method: as §1

Target	log2 fold change
SUSD3 (UniProt Q96L08)	inactive: -0.054
TAF5 (UniProt Q15542)	inactive: -0.119
TAF3 (UniProt Q5VWG9)	inactive: 0.074
SYNCRIP isoform 3 (UniProt O60506)	inactive: -0.184
STK35 (UniProt Q8TDR2)	inactive: 0.014
SUN2 isoform 2 (UniProt Q9UH99)	inactive: 0.069
SYTL2 isoform 8 (UniProt Q9HCH5)	inactive: -0.02
STK3 isoform 2 (UniProt Q13188)	inactive: 0.108
SZT2 (UniProt Q5T011)	inactive: -0.009
STON1 isoform 2 (UniProt Q9Y6Q2)	inactive: -0.008
SUPT3H (UniProt O75486)	inactive: 0.055
SUFU (UniProt Q9UMX1)	inactive: -0.138
STN1 (UniProt Q9H668)	inactive: 0.032
STK16 (UniProt O75716)	inactive: -0.107
